Test results reported in the supplement of paper PMC12819154, “High-throughput peptide-centric local stability assay extends protein–ligand identification to membrane proteins, tissues and bacteria” (Nature Structural & Molecular Biology, 2025).
The list shows a part of the results. Small differences around the control level are noise.

Chains of the proteins cited; added tags and fusions are not shown. Lines headed by an entry give the natural chain unless they say otherwise; changes in a name come on top.
UniProt O75528: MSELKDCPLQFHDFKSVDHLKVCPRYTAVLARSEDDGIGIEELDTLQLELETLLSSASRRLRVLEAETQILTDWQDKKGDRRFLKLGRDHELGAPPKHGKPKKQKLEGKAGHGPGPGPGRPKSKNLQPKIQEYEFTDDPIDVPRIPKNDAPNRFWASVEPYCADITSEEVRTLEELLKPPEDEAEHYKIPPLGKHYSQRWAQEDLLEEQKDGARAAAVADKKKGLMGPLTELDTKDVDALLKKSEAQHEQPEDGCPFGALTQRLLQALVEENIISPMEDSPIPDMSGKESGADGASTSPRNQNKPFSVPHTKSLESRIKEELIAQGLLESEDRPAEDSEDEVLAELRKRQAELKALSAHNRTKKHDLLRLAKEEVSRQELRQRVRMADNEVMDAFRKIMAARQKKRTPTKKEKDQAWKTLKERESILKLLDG
UniProt O95639, whole entry: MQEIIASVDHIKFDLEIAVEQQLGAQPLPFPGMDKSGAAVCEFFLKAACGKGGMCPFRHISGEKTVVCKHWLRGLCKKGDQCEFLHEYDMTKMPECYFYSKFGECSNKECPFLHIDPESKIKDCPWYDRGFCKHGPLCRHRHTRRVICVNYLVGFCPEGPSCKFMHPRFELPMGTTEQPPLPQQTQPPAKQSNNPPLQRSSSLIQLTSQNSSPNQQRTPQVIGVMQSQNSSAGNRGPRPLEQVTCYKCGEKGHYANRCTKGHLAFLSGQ
UniProt O75791: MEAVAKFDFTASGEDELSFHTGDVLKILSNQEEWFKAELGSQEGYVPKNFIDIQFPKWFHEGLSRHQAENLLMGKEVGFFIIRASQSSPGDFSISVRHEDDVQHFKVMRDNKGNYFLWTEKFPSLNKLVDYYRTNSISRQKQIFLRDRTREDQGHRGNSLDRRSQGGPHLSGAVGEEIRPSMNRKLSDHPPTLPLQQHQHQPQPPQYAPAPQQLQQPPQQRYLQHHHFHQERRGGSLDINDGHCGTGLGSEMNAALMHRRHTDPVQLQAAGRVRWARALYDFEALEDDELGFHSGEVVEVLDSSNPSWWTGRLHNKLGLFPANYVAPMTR
UniProt O75474: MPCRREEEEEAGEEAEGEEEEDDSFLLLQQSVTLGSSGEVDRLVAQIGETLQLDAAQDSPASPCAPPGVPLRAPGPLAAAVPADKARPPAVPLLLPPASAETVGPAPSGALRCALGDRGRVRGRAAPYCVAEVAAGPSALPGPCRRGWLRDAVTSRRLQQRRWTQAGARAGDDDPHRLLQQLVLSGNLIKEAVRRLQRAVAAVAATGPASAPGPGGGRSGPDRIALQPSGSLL
UniProt O95630, whole entry: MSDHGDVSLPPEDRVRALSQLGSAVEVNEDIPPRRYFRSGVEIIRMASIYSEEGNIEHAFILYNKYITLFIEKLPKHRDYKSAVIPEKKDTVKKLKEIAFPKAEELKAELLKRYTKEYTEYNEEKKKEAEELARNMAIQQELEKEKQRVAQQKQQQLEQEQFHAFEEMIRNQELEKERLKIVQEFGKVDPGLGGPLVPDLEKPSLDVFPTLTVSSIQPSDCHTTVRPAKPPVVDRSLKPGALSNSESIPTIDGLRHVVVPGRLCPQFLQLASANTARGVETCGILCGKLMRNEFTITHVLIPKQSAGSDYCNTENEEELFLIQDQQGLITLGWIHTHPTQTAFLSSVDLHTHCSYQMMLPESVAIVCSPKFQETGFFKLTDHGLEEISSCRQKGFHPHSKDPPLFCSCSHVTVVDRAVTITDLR
UniProt O95562: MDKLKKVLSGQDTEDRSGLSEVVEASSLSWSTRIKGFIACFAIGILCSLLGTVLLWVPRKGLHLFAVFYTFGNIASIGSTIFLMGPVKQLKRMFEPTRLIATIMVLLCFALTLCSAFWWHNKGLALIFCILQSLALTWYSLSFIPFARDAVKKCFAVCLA
UniProt O95373, whole entry: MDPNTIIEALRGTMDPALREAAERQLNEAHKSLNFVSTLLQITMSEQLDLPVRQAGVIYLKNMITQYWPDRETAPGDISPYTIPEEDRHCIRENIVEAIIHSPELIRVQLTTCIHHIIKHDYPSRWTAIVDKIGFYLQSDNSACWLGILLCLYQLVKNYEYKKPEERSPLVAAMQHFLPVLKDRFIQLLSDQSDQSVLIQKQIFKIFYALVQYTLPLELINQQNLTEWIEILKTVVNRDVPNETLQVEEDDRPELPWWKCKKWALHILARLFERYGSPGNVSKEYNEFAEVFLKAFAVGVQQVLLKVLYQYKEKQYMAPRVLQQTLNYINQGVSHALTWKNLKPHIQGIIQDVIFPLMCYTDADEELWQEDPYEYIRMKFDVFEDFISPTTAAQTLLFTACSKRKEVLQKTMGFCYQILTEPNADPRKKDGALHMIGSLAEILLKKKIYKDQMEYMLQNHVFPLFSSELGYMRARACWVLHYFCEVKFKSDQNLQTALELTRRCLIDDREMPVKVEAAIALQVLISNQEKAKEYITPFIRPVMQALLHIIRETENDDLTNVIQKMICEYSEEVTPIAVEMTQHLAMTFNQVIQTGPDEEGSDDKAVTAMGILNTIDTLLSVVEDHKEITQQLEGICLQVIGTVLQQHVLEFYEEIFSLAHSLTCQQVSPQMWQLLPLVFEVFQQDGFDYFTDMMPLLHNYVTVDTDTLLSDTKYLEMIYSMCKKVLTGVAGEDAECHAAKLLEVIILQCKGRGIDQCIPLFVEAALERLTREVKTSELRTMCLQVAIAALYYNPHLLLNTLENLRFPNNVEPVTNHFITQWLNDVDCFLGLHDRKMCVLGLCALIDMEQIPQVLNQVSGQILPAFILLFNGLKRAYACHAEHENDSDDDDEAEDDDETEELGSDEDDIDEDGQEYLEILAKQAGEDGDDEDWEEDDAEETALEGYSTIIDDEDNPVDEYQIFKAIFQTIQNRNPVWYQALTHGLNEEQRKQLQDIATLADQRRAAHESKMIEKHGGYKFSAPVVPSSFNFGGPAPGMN
UniProt O94822: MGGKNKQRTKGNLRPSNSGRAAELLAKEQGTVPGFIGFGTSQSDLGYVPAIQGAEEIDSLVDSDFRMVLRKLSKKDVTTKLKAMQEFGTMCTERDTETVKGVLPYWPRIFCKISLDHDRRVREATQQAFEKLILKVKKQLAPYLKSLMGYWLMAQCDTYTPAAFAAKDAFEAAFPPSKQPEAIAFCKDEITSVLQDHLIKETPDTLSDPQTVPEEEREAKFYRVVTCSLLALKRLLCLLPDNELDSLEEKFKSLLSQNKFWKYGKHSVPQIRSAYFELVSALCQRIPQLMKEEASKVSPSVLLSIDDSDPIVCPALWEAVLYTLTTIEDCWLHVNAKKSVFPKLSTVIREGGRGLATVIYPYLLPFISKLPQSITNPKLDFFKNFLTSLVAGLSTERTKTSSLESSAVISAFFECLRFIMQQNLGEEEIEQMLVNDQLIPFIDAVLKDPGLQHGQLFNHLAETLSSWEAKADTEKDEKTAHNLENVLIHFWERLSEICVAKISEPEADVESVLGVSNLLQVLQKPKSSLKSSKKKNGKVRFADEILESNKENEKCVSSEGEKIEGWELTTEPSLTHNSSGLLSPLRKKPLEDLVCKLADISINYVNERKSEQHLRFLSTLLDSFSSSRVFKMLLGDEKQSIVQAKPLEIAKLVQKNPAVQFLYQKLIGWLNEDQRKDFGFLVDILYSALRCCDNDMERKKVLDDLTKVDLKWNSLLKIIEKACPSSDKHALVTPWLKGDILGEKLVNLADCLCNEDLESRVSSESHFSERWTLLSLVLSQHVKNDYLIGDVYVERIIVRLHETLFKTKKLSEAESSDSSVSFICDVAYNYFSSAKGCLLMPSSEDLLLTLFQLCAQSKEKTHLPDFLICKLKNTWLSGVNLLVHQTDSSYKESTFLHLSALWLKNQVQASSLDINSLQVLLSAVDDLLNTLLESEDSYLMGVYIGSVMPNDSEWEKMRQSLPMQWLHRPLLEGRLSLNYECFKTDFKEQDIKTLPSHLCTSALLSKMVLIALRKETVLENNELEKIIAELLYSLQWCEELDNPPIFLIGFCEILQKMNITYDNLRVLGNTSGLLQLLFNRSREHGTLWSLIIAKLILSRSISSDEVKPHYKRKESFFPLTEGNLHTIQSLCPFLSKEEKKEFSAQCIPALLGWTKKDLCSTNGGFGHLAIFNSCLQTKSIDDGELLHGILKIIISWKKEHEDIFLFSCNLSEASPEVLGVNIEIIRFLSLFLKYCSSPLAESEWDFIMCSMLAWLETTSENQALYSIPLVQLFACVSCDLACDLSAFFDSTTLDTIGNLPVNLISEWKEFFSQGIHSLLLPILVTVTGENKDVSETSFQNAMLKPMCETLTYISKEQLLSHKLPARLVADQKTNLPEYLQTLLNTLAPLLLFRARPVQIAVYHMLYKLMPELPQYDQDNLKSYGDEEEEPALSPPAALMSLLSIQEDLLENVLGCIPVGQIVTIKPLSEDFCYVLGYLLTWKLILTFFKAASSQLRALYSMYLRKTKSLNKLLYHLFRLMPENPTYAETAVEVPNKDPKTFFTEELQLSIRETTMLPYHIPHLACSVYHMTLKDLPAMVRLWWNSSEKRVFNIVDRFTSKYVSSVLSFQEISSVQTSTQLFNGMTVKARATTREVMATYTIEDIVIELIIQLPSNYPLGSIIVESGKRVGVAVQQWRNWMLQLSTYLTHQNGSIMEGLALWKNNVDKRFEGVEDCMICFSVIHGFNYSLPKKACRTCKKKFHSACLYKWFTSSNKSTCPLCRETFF
UniProt O95159: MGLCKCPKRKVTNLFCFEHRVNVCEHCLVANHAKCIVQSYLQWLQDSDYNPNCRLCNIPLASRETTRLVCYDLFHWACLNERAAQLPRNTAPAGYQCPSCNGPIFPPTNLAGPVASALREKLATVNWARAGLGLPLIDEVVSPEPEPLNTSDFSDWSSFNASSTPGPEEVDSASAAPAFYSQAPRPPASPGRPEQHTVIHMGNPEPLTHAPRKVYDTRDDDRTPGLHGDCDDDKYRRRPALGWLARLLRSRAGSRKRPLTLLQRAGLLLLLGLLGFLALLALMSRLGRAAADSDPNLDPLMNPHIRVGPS
UniProt O76041: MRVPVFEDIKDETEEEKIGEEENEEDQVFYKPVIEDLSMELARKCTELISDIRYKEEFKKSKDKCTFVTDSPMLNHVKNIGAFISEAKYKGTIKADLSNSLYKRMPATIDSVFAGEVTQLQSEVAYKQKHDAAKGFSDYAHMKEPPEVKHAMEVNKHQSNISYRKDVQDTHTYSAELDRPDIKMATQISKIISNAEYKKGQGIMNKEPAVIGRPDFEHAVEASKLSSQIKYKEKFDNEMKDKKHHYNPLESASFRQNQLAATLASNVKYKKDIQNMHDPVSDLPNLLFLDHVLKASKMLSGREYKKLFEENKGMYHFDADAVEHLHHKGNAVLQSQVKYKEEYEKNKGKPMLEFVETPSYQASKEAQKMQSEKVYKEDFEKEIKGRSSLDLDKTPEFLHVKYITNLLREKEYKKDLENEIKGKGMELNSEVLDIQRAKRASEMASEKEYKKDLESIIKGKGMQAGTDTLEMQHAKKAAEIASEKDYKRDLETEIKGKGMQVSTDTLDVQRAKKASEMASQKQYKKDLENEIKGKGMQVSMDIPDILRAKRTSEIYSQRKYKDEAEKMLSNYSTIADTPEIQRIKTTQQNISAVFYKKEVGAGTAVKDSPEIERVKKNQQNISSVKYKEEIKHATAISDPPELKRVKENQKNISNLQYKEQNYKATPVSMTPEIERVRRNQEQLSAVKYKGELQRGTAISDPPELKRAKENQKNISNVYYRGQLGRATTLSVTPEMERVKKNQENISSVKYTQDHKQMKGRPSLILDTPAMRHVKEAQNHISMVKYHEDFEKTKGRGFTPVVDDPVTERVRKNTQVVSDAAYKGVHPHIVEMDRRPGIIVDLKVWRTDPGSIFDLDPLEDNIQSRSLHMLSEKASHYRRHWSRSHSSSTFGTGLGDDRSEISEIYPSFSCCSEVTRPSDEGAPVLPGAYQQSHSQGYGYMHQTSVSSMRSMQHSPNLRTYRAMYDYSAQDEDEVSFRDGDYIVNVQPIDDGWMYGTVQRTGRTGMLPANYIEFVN
UniProt O95931, whole entry: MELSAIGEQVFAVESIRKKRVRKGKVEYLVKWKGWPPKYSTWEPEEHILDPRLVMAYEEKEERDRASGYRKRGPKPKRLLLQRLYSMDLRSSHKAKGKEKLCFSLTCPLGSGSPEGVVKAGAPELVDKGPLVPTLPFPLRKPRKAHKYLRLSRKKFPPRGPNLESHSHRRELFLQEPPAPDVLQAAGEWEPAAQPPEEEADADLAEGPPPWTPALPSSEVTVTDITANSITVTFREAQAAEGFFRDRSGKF

compound: CN[C@@H]1C[C@H]2O[C@@](C)([C@@H]1OC)n1c3ccccc3c3c4c(c5c6ccccc6n2c5c31)C(=O)NC4 [staurosporine]; experiment: log2 fold change of tryptic peptide abundance, ligand vs vehicle (limited proteolysis) (log2 ratio); higher = more trypsin-susceptible (destabilized); conditions: ligand concentration: 20 uM; sample: K562 cleared lysate; digestion: 4 min, 22 C (HT-PELSA RT4min, Orbitrap Astral)

| Target | log2 fold change |
| --- | --- |
| UniProt O75528 (peptide sequence: WAQEDLLEEQKDGAR, peptide start residue: 200) | -0.186 |
| CPSF4 (peptide sequence: SSSLIQLTSQNSSPNQQR, peptide start residue: 200) (UniProt O95639) | 0.19 |
| GRAP2 (peptide sequence: HEDDVQHFK, peptide start residue: 98) (UniProt O75791) | 0.789 |
| NUDT14 (peptide sequence: CAASPYLRPLTLHYR, peptide start residue: 12) (UniProt O95848) | -0.207 |
| UniProt O75474 (peptide sequence: LLQQLVLSGNLIK, peptide start residue: 202) | 0.0677 |
| VPS26A (peptide sequence: YFLNLVLVDEEDRR, peptide start residue: 272) (UniProt O75436) | -0.394 |
| SNRNP200 (peptide sequence: DEPTGEVLSLVGKLEGTR, peptide start residue: 34) (UniProt O75643) | -0.13 |
| STAMBP (peptide sequence: KKEAEELAR, peptide start residue: 126) (UniProt O95630) | 0.345 |
| UniProt O95478 (peptide sequence: AQGETEVLK, peptide start residue: 126) | -0.28 |
| SFT2D2 (peptide sequence: KVLSGQDTEDR, peptide start residue: 6) (UniProt O95562) | 0.158 |
| CEP152 (peptide sequence: LIQQLEKEWQSK, peptide start residue: 765) (UniProt O94986) | -0.153 |
| IPO7 (peptide sequence: SPLVAAMQHFLPVLK, peptide start residue: 168) (UniProt O95373) | 0.609 |
| CPD (peptide sequence: MMSTGSKK, peptide start residue: 1350) (UniProt O75976) | -0.163 |
| MED6 (peptide sequence: RKEEPSSIFQR, peptide start residue: 164) (UniProt O75586) | -0.291 |
| SNX4 (peptide sequence: IASHPILCR, peptide start residue: 165) (UniProt O95219) | 0.201 |
| SLU7 (peptide sequence: KGACENCGAMTHKK, peptide start residue: 117) (UniProt O95391) | 1.16 |
| ECD (peptide sequence: IMTSVTFTK, peptide start residue: 258) (UniProt O95905) | -0.123 |
| UniProt O94822 (peptide sequence: KSEQHLR, peptide start residue: 609) | 0.335 |
| CIAO1 (peptide sequence: HVVWHPSQELLASASYDDTVK, peptide start residue: 155) (UniProt O76071) | -0.289 |
| UBE4B (peptide sequence: HLLNSPTDPFNR, peptide start residue: 1261) (UniProt O95155) | 0.295 |
| PCNT (peptide sequence: DLESKDEVPGSR, peptide start residue: 2940) (UniProt O95613) | -0.421 |
| TRIM16 (peptide sequence: SVLVSVSEVK, peptide start residue: 203) (UniProt O95361) | 0.376 |
| UTP20 (peptide sequence: QKSHSLKDLAMVE, peptide start residue: 2773) (UniProt O75691) | -0.785 |
| MPDZ (peptide sequence: ISLGQQSGR, peptide start residue: 1099) (UniProt O75970) | -0.707 |
| ZFPL1 (peptide sequence: DDDRTPGLHGDCDDDKYR, peptide start residue: 219) (UniProt O95159) | -0.337 |
| KATNA1 (peptide sequence: SLLMISENVK, peptide start residue: 2) (UniProt O75449) | 0.204 |
| NEBL (peptide sequence: NTQVVSDAAYK, peptide start residue: 812) (UniProt O76041) | -0.167 |
| UniProt O95931 (peptide sequence: LVMAYEEKEER, peptide start residue: 53) | 0.257 |

Exported as tab-separated lines: entries from further up.
Target	log2 fold change
NEBL (peptide sequence: NTQVVSDAAYK, peptide start residue: 812) (UniProt O76041)	-0.167
UniProt O95931 (peptide sequence: LVMAYEEKEER, peptide start residue: 53)	0.257
